Results deposited as PubChem BioAssay AID1508588 (Peter MacCallum Cancer Centre, 2020).

Test: 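Which gene losses make BRAF-mutant melanoma cells more responsive to vemurafenib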 (primary screen)
Cells: human WM266.4 melanoma cells (BRAF V600 mutant)
Reagents: siRNA pool against human genes, 40 nM
Duration: 96 h from transfection to read-out
Challenge: vemurafenib 300 nM (about IC25), added 48 h after transfection, for 48 h; comparison arm got DMSO vehicle only
Measurement: 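Ratios to non-targeting siRNA for cell gain, counted as DAPI nuclei after minus before drug and averaged over two replicates, and for absorbance-read medium lactate per cell; both binned into fold-change classes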
Reading the numbers: cell gain with vemurafenib: higher = more cell gain than with non-targeting siRNA; lactate per cell with vemurafenib: higher = more lactate made per cell
Call rule: 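a knock-down counts as enhancing when its fold-change classes with vehicle and with vemurafenib, taken together, show a stronger drug effect on cell gain or lactate per cell; exact class pairs not stated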
Meaning of the calls: active = enhances vemurafenib effect; inactive = no enhancement seen
Shown is a random part of about 18,000 reagents tested. 790 of them (4.4%) count as active. 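Calls rest on a combination of fold-change classes in drug and vehicle arms, not all shown here.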

gene symbol | cell gain with vemurafenib | lactate per cell with vemurafenib | activity call
TLX2 (T cell leukemia homeobox 2) | 0.87 | 0.92 | inactive
OR5I1 (olfactory receptor family 5 subfamily I member 1) | 0.11 | 0.61 | inactive
PNMA8A (PNMA family member 8A) | 0.45 | 0.84 | inactive
WHR1 (winged helix repair factor 1) | 0.47 | 1.16 | inactive
ZNF287 (zinc finger protein 287) | -0.05 | 1.99 | inactive
NAXD (NAD(P)HX dehydratase) | 0.43 | 1.23 | inactive
NAALADL2 (N-acetylated alpha-linked acidic dipeptidase like 2) | 0.49 | 1.1 | inactive
TMEM132B (transmembrane protein 132B) | 0.65 | 0.9 | inactive
IL2RA (interleukin 2 receptor subunit alpha) | 0.55 | 0.45 | inactive
SPCS3 (signal peptidase complex subunit 3) | 0.49 | 0.24 | inactive
IL19 (interleukin 19) | 0.73 | 0.66 | inactive
TTK (TTK protein kinase) | -0.1 | 5.14 | inactive
FCGR3B (Fc gamma receptor IIIb) | 0.72 | 0.7 | inactive
BMS1 (BMS1 ribosome biogenesis factor) | 0.24 | 3.21 | inactive
H2AC21 (H2A clustered histone 21) | 1.27 | 0.76 | inactive
MPPE1 (metallophosphoesterase 1) | 0.48 | 1.38 | inactive
FAXC | 0.45 | 0.56 | inactive
YRDC (yrdC N6-threonylcarbamoyltransferase domain containing) | 0.04 | 1.12 | inactive
MTX1 (metaxin 1) | 0.2 | 2.6 | inactive
MARCHF5 (membrane associated ring-CH-type finger 5) | -0.04 | 1.88 | inactive
CRYBA2 (crystallin beta A2) | 0.26 | 1.44 | inactive
ILKAP (ILK associated serine/threonine phosphatase) | 0.72 | 1.23 | inactive
OR4A47 (olfactory receptor family 4 subfamily A member 47) | 0.29 | 0.46 | inactive
SREK1 (splicing regulatory glutamic acid and lysine rich protein 1) | 1.04 | 0.92 | inactive
TRMT10A (tRNA methyltransferase 10A) | 0.39 | 0.58 | inactive
OOEP (oocyte expressed protein) | 0.89 | 0.73 | inactive
SMARCE1 (SWI/SNF related BAF chromatin remodeling complex subunit E1) | 0.59 | 0.78 | inactive
STEAP4 (STEAP4 metalloreductase) | 0.74 | 0.66 | inactive
GLP1R (glucagon like peptide 1 receptor) | 0.81 | 1.05 | inactive
CCR9 (C-C motif chemokine receptor 9) | 0.48 | 0.94 | inactive
GOLGA8B (golgin A8 family member B) | 0.91 | 0.88 | inactive
IYD (iodotyrosine deiodinase) | 1.02 | 0.64 | inactive
PSAT1 (phosphoserine aminotransferase 1) | 1.13 | 0.7 | inactive
ARSA (arylsulfatase A) | 0.29 | 1.85 | inactive
HTN3 (histatin 3) | 0.19 | 1.05 | inactive
DLEU7 (deleted in lymphocytic leukemia 7) | 0.61 | 0.66 | inactive
GALNTL6 (polypeptide N-acetylgalactosaminyltransferase like 6) | 0.75 | 1.42 | inactive
BMP10 (bone morphogenetic protein 10) | 0.2 | 2.37 | inactive
GPR37 (G protein-coupled receptor 37) | 0.89 | 1.01 | inactive
NTRK1 (neurotrophic receptor tyrosine kinase 1) | 0.3 | 0.98 | inactive
PAX6 (paired box 6) | 0.79 | 1.09 | inactive
ZNHIT3 (zinc finger HIT-type containing 3) | 0.36 | 0.78 | inactive
BBS9 (Bardet-Biedl syndrome 9) | 0.77 | 0.73 | inactive
EIF3B (eukaryotic translation initiation factor 3 subunit B) | 0.28 | 0.59 | inactive
SET (SET nuclear proto-oncogene) | 0.07 | 1.94 | inactive
GDPD2 (glycerophosphodiester phosphodiesterase domain containing 2) | 0.77 | 0.62 | inactive
SEZ6L2 (seizure related 6 homolog like 2) | 0.86 | 0.9 | inactive
NXPE2 (neurexophilin and PC-esterase domain family member 2) | 0.63 | 0.99 | inactive
TMCO6 (transmembrane and coiled-coil domains 6) | 0.46 | 0.88 | inactive
EPHB1 (EPH receptor B1) | 0.57 | 1.55 | inactive
TMEM258 (transmembrane protein 258) | 0.34 | 1.98 | inactive
HAUS3 (HAUS augmin like complex subunit 3) | 0.38 | 0.94 | inactive
GCH1 (GTP cyclohydrolase 1) | 0.64 | 0.56 | inactive
ZNF626 (zinc finger protein 626) | 0.73 | 0.8 | inactive
GTF3C1 (general transcription factor IIIC subunit 1) | 0.93 | 0.37 | inactive
GBP4 (guanylate binding protein 4) | 0.57 | 0.64 | inactive

Reformatted: 8 of the entries above
CRYBA2 (crystallin beta A2): cell gain with vemurafenib = 0.26; lactate per cell with vemurafenib = 1.44; activity call = inactive
ILKAP (ILK associated serine/threonine phosphatase): cell gain with vemurafenib = 0.72; lactate per cell with vemurafenib = 1.23; activity call = inactive
OR4A47 (olfactory receptor family 4 subfamily A member 47): cell gain with vemurafenib = 0.29; lactate per cell with vemurafenib = 0.46; activity call = inactive
SREK1 (splicing regulatory glutamic acid and lysine rich protein 1): cell gain with vemurafenib = 1.04; lactate per cell with vemurafenib = 0.92; activity call = inactive
TRMT10A (tRNA methyltransferase 10A): cell gain with vemurafenib = 0.39; lactate per cell with vemurafenib = 0.58; activity call = inactive
OOEP (oocyte expressed protein): cell gain with vemurafenib = 0.89; lactate per cell with vemurafenib = 0.73; activity call = inactive
SMARCE1 (SWI/SNF related BAF chromatin remodeling complex subunit E1): cell gain with vemurafenib = 0.59; lactate per cell with vemurafenib = 0.78; activity call = inactive
STEAP4 (STEAP4 metalloreductase): cell gain with vemurafenib = 0.74; lactate per cell with vemurafenib = 0.66; activity call = inactive

The list goes on:
gene symbol | cell gain with vemurafenib | lactate per cell with vemurafenib | activity call
MTHFS (methenyltetrahydrofolate synthetase) | 0.34 | 0.7 | active
DBT (dihydrolipoamide branched chain transacylase E2) | 0.86 | 0.73 | inactive
HLCS (holocarboxylase synthetase) | 0.89 | 0.69 | inactive
OR10H5 (olfactory receptor family 10 subfamily H member 5) | 1.09 | 0.69 | inactive
SCRN3 (secernin 3) | 0.93 | 0.62 | inactive
CDON (cell adhesion associated, oncogene regulated) | 0.93 | 0.76 | inactive
NHLRC1 (NHL repeat containing E3 ubiquitin protein ligase 1) | 0.18 | 0.88 | inactive
TMEM202 (transmembrane protein 202) | 0.72 | 0.54 | inactive
NFIX (nuclear factor I X) | 0.39 | 0.86 | inactive
DMRTC2 (DMRT like family C2) | 0.47 | 1.1 | inactive
ABHD14A (abhydrolase domain containing 14A) | 0.81 | 0.54 | inactive
SPAG8 (sperm associated antigen 8) | 0.93 | 0.58 | inactive
TGIF2 (TGFB induced factor homeobox 2) | 0.72 | 0.88 | inactive
RPL13A (ribosomal protein L13a) | -0.12 | 2.06 | inactive
MIDN (midnolin) | 1.19 | 0.4 | active
ZNF587 (zinc finger protein 587) | 0.77 | 0.87 | inactive
PEAR1 (platelet endothelial aggregation receptor 1) | 0.87 | 0.76 | inactive
FOXF2 (forkhead box F2) | 0.77 | 1.52 | inactive
FGF11 (fibroblast growth factor 11) | 1.22 | 0.74 | inactive
ARL6IP1 (ARL6 interacting reticulophagy regulator 1) | 0.31 | 0.22 | inactive
KNCN (kinocilin) | 0.16 | 2.86 | inactive
LUM (lumican) | 0.52 | 0.84 | inactive
RAMP1 (receptor activity modifying protein 1) | 0.22 | 0.43 | active
IL6R (interleukin 6 receptor) | 0.29 | 1.19 | inactive
DNAJC25 (DnaJ heat shock protein family (Hsp40) member C25) | 0.43 | 0.45 | active
NIBAN3 (niban apoptosis regulator 3) | 0.72 | 0.58 | inactive
GPATCH8 (G-patch domain containing 8) | 0.64 | 1.45 | inactive
VNN2 (vanin 2) | 0.74 | 0.83 | inactive
